In all, about 200,000 compounds went through this assay and about 25 (0.01%) were called active. The inconclusive results got no clear call from the source; some entries with a clear call stand among them for comparison. Calls follow the shape of the dose curve; as a rule, active = well fitted inhibition curve with a large enough effect in the signal ratio, with a control signal flat (not every such curve was filed as active); inconclusive = small, poorly fitted or top-dose-only effect, or effect the other way, or a change in a side signal; inactive = flat fitted curve, though single readings scatter; the % refers to the signal ratio. Where the call is inconclusive, the potency comes from a doubtful curve fit.
Experiment: qHTS Assay for Modulators of Lamin A Splicing
Conditions: HeLa LMNA splicing GFP/RFP minigene ratio, 48 h; ratio change, negative = inhibition: at 46.1 µM (top of the series) unless noted
In short: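 Read-out is the ratio of GFP to DsRed2 object intensity, acquired by 488 nm laser-scanning cytometry on HeLa lamin A-EGFP minigene reporter cells. Compound incubation 48 hrs at 37 °C in Opti-MEM with 2% FBS; DMSO 0.5% final.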
% is scaled to controls: 0 for no effect and ±100 for the full control effect; potency is read from the fitted curve at half-maximal effect.

SMILES | ratio change, negative = inhibition | Potency
COC(=O)c1ccc2nc(NC(=O)C(C)C)sc2c1 | inactive: 17.4% [at 9.22 µM] | –
Cn1c(=O)c2c(SCCN3CCOCC3)nc(C3CCCC3)nc2n(C)c1=O | inconclusive: 4.62% [at 46 µM] | –
COc1ccc2[nH]cc(CCNc3ncncc3-c3ccoc3)c2c1 | – | inconclusive: 3.16 µM [inhibitor, partial curve]
COc1ccc(OC)c(CNC(=O)c2ccc(NC(=O)c3nsc4ccccc34)cc2)c1 | inconclusive: 2.07% [at 46 µM] | –
CCOC(=O)CN1C(=O)C(CC)Oc2ccc(Cl)cc21 (configuration not stated) | inconclusive: 14.6% | –
CS(=O)(=O)Nc1ccc([N+](=O)[O-])cc1Oc1ccccc1 | inconclusive: 13.6% [at 46 µM] | inconclusive: 0.126 µM [inhibitor, partial curve, poor fit]
COc1cc(O)c(CCC(=O)c2cc(OC)c(OC)c(OC)c2)c(OC)c1 | inconclusive: -5.54% | –
Cc1ccc(S(=O)(=O)N2CCCC2C(=O)OCc2ccco2)cc1 (configuration not stated) | inactive | –
CCn1cc(C(=O)O)c(=O)c2cc(F)c(N3CCNC(C)C3)c(F)c21 (configuration not stated) | inconclusive: -22.2% | –
Cc1ccc(NC(=O)c2c(C)oc3c2C2=NCCN2C=N3)cc1F | inconclusive: 1.62% [at 46 µM] | –
COc1ccc2c(c1)c(=O)cc(-c1ccccc1)n2C | inactive | –
CC1CN(C(=O)c2cccn(Cc3c(Cl)cccc3Cl)c2=O)CC(C)O1 (configuration not stated) | inconclusive: -7.29% [at 46 µM] | –
CN(CC(=O)NCc1ccc(F)cc1)S(=O)(=O)c1ccc2[nH]c3c(c2c1)CCCC3 | inconclusive: -22.9% [at 46 µM] | –
CCC1=NN2C(=N)/C(=C\c3cccn3-c3ccc(C)cc3C)C(=O)N=C2S1 | inconclusive: 21.6% [at 9.22 µM] | –
COc1ccccc1OCC(=O)N1CCC(c2nc3ccccc3o2)CC1 | inconclusive: 22.1% [at 46 µM] | –
CCN(c1ccccc1C)S(=O)(=O)c1nnc(NC(=O)c2ccco2)s1 | inconclusive: 27.3% [at 46 µM] | –
O=C(Cc1ccc(F)cc1)Nc1cccc2cccnc12 | inconclusive: 5.42% | –
COc1cccc(N2C(N)=NC(N)=NC2(C)C)c1 | inconclusive: 2.3% [at 0.0737 µM] | –
O=C(C(=O)N1CCc2ccccc2C1)c1cn(CC(=O)N2CCCC2)c2ccccc12 | inactive | –
O=C(Nc1ccc(S(=O)(=O)NCc2ccco2)cc1)C1CCCCC1 | inconclusive: 4.42% [at 46 µM] | –
COc1ccc(NC(=O)c2csnn2)cc1 | inconclusive: 35.5% [at 46 µM] | –
Cc1nc(NC(C)c2ccccc2)c2oc3ccccc3c2n1 (configuration not stated) | inconclusive: 35.1% | –
Cc1ccccc1C(=O)NC(=S)NCC(=O)c1ccccc1 | inactive | –
O=C(CN(CC1CCCO1)C(=O)c1nsc(Cl)c1Cl)NC1CCCC1 (configuration not stated) | inactive | –
C[C@@H]1C[C@@H]2[C@H]3CCC4=CC(=O)C=C[C@]4(C)[C@]3(F)[C@@H](O)C[C@]2(C)[C@@]1(O)C(=O)CO | inconclusive: 9.04% | –
CCOC(=O)c1c(C)n(C)c2ccc(OC(=O)c3ccco3)cc12 | inconclusive: -4.12% | –
OCc1ccccc1 | inactive | –

An excerpt from above in order of molecular weight, ascending:
SMILES | ratio change, negative = inhibition | Potency
COc1cccc(N2C(N)=NC(N)=NC2(C)C)c1 | inconclusive: 2.3% [at 0.0737 µM] | –
COc1ccc2c(c1)c(=O)cc(-c1ccccc1)n2C | inactive | –
O=C(Cc1ccc(F)cc1)Nc1cccc2cccnc12 | inconclusive: 5.42% | –

(more compounds)

SMILES | ratio change, negative = inhibition | Potency
CCOC(=O)c1ccc(NCc2ccc3c(c2)OCO3)cc1 | – | inconclusive: 35.5 µM [fluorescent, single point]
CCCCOC(=O)c1ccc(NC(=O)c2csnn2)cc1 | inactive | –
C/C(=C\C=C\c1ccccc1)C(=O)c1c(C)cc(C)[nH]c1=O | inactive: 20.9% [at 9.22 µM] | –
Cc1ccc(-n2nnnc2SCC(=O)N2c3ccccc3NC(=O)C2(C)C)cc1 | inconclusive: -24.1% | –
N#C/C(=C\c1ccc(C#N)cc1)C(=O)c1ccccc1 | inconclusive: 35.8% [at 46 µM] | –
O=S1(=O)c2cccc3cccc(c23)N1Cc1nnc(-c2ccccc2Br)o1 | – | inconclusive: 5.62 µM [fluorescent, full curve, poor fit]
CN(C)CCC=C1c2ccccc2C=Cc2ccccc21 | inconclusive: -32.4% | inconclusive: 11.2 µM [inhibitor, partial curve]
COc1ccc(OC)c(CCNC(=O)CS(=O)(=O)Cc2nc(-c3ccc(C)cc3)oc2C)c1 | inconclusive: 15.8% | –
CO[C@]1(NC(=O)[C@H](C(=O)O)c2ccc(O)cc2)C(=O)N2C(C(=O)O)=C(CSc3nnnn3C)CO[C@H]21 | inconclusive: -16.6% [at 22.9 µM] | –
O=C(Nc1ccc(C(O)(C(F)(F)F)C(F)(F)F)cc1)c1ccc(Cl)c([N+](=O)[O-])c1 | – | inconclusive: 35.5 µM [falling, single point]
O=S(=O)(c1ccc2ccccc2c1)N(CC(O)CN1CCOCC1)c1ccccc1 (configuration not stated) | inconclusive: -1.75% | –
C[C@@H]1C(=O)O[C@@H]2C[C@]34[C@H]5C[C@@H](C(C)(C)C)[C@@]36[C@@H](OC(=O)[C@@H]6O)O[C@@]4(C(=O)O5)[C@@]12O | inactive | –
O=C(COc1ccc(F)cc1)OCc1cc(=O)n2nc(-c3cccs3)sc2n1 | inconclusive: -14.9% [at 46 µM] | –
CC(NC(=O)Nc1ccc([N+](=O)[O-])cc1)C(c1ccccc1)N1CCOCC1 (configuration not stated) | inactive | –
COCCn1c(SCc2nnc(-c3ccccc3)o2)nc2sc3c(c2c1=O)CCC3 | inconclusive: 17.1% | –
CCOc1ccc(N/C=C/C(=O)c2ccccc2)c([N+](=O)[O-])c1 | inactive | –
Cc1ccc(NC(=O)CSc2nnc(-c3n[nH]c4ccccc34)n2-c2ccccc2)c(C)c1 | inconclusive: -14.2% | –
CC(C)CN(C(=O)CSc1nnc(-c2ccco2)o1)c1c(N)n(Cc2ccccc2)c(=O)[nH]c1=O | inconclusive: -34.7% [at 46 µM] | –
Cc1cc(C)c(NC(=O)c2sc3nc4c(cc3c2N)C(=O)CC(C)(C)C4)c(C)c1 | inactive | –
CCOc1ccc(NC(=O)c2cc(S(=O)(=O)N3CCN(c4ccccc4F)CC3)ccc2F)cc1 | inactive | –
Cc1c(Cl)cccc1NC(=O)CSc1nc(=O)n(Cc2ccco2)c2c1CCC2 | inconclusive: 8.55% [at 46 µM] | –
Cc1ccc(S(=O)(=O)N(C)Cc2ccc(C(=O)NN=C3C4CC5CC(C4)CC3C5)cc2)cc1 | inactive | –
COC(=O)CSc1nnnn1-c1cccc2ccccc12 | inactive | –
CCCn1nnnc1NC(=O)c1cc(Br)ccc1OC | inconclusive: 43.4% [at 46 µM] | –
Brc1nc(Br)n(Cc2ccccc2)n1 | inconclusive: 39.4% [at 46 µM] | –
C=CCc1ccccc1OC[C@H](O)CNC(C)C | inconclusive: -9.9% | –
Nc1ccc(C(=O)Oc2ccccc2)c(O)c1 | – | inconclusive: 0.891 µM [inhibitor, full curve, poor fit]

SMILES | ratio change, negative = inhibition | Potency
Cc1ccc(S(=O)(=O)C(CNC(=O)COc2ccccc2)c2ccco2)cc1 (configuration not stated) | inconclusive: 12.1% [at 46 µM] | –
Fc1cc(F)c2nc(Nc3nc4c(F)cccc4s3)sc2c1 | inconclusive: -48.3% | –
Cc1cc(C)n(-c2nc3cc(Cl)ccc3nc2N2CCN(c3ccccc3F)CC2)n1 | inconclusive: -17.4% [at 46 µM] | –
COc1ccc(/C=C2\SC(=O)N(CCNC(=O)Cc3coc4cc(C)ccc34)C2=O)cc1OC | inconclusive: -49.2% | –
CC(=O)OCCNc1cc(N2CCN(C)CC2)c2noc3c2c1C(=O)c1ccccc1-3 | inactive | –
CC(=O)c1ccc(NC(=O)N2CCN(c3cccc(Cl)c3)CC2)cc1 | inactive | –
COc1ccc(C)cc1Nc1ncnc2c1c(-c1ccccc1)cn2-c1ccc(C)cc1 | inconclusive: 12.5% [at 46 µM] | –
O=C(CN1CCN(S(=O)(=O)c2ccc(F)cc2)CC1)Nc1ccccc1F | inconclusive: 33% | –
O=C(c1cn(-c2ccccc2)nc1-c1ccc(Br)cc1)N1CCOCC1 | inactive | –
Cc1nn(Cc2ccccc2Cl)c(C)c1C(=O)Nc1nnc(C2CC2)s1 | – | inconclusive: 2.51 µM [inhibitor, full curve]
CC(=O)c1ccccc1OCCn1nnc(-c2ccc(C)cc2)n1 | – | inconclusive: 35.5 µM [falling, single point]
COc1ccc(N2C(=O)CC(N3CCN(C(=O)c4ccco4)CC3)C2=O)cc1 (configuration not stated) | inactive | –
COc1ccccc1C(=O)Nc1ccc(C(=O)OCc2cc(=O)n3nc(C4CC4)sc3n2)cc1 | inconclusive: 8.56% [at 46 µM] | –
CCCn1c(N)c(N(CCOC)C(=O)/C=C/c2cccc(Cl)c2)c(=O)[nH]c1=O | inconclusive: -4.58% [at 46 µM] | –
COc1cccc(-c2nnc3sc(-c4cccs4)nn23)c1 | inactive | –
COc1cc(C)c(/C=C/C(C)=C/C=C/C(C)=C/C(=O)O)c(C)c1C | inconclusive: -19.8% | –
CCCCCCCCCCCCCCCCCC(=O)OCC(O)CO (configuration not stated) | inconclusive: -14.7% | –
CC(C)c1nn2c(=O)cc(COC(=O)c3ccco3)nc2s1 | inactive | –
OC(COc1ccc(CNCc2cccnc2)cc1)CN1CCc2ccccc2C1 (configuration not stated) | inactive | –
CCOc1ccc(CCNC(=O)Cn2ccc3ccccc3c2=O)cc1OCC | inconclusive: 1.89% [at 46 µM] | –
CCCOc1ccc(/C=N/Nc2cccc([N+](=O)[O-])c2)c(O)c1 | inconclusive: -53.9% | –
O=Cc1cnc(N2CCCCC2)s1 | inactive | –
CN(C)c1ccc(NC(=O)N2CCOCC2)cc1 | inactive | –
COc1ccc(C(=O)OCCNC(=O)c2c(Cl)nc3ccccn23)cc1 | inactive | –
COc1ccc(-c2nc3scc(CCNS(=O)(=O)c4ccc5c(c4)OCCO5)n3n2)cc1 | inconclusive: -14.2% [at 46 µM] | –
Cc1ccc(CN(C(=O)COc2cc(C)c(Cl)c(C)c2)c2ccccn2)o1 | inconclusive: -31.1% [at 46 µM] | –

Reference: PubChem BioAssay AID1487 (National Center for Advancing Translational Sciences (NCATS), 2009)
